This series addresses human serum albumin (HSA) (Homo sapiens) (UniProt P02768). In words: library-bead release assay (streptavidin magnetic beads with capture strand, Nanodrop of supernatant). The following applies: HSA as negative control target, stated no cross reaction; 1x binding buffer (composition not given), room temperature, 60 min; library beads pre-incubated in 1x TES at 25 C; single-stranded DNA.

Negatives hold for the conditions tested.

Consider “TTTTCGCTGGCTAGTCAGTTTTCTCGTCGTGTGAT [Seq78-4]”, for which the binding result is given as “no binding”.

The values above are taken from article PMC13120037.
